Data taken from the supplement of paper PMC12823440, “Inhibitors supercharge kinase turnover through native proteolytic circuits” (Nature, 2025).
Counter-ions that a name gives are not always drawn. Some of the results follow. Hit calls seldom repeat between salt and free forms of one compound.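 In K562 cells expressing nanoluciferase-fused kinases, luminescence was recorded at 4 h intervals between 2 and 18 h, normalized as percent of control with DMSO at 100% and a positive control at 0%. A significant (2 sigma) signal drop marks a time point as decreased. The authors' rule for a hit is not shown and takes in more than the number of time points.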

Sequences of proteins named here, by UniProt entry; tags and fusion partners are left off. A change or cut given only in a name is not applied to a line headed by its entry.
UniProt Q9UM73: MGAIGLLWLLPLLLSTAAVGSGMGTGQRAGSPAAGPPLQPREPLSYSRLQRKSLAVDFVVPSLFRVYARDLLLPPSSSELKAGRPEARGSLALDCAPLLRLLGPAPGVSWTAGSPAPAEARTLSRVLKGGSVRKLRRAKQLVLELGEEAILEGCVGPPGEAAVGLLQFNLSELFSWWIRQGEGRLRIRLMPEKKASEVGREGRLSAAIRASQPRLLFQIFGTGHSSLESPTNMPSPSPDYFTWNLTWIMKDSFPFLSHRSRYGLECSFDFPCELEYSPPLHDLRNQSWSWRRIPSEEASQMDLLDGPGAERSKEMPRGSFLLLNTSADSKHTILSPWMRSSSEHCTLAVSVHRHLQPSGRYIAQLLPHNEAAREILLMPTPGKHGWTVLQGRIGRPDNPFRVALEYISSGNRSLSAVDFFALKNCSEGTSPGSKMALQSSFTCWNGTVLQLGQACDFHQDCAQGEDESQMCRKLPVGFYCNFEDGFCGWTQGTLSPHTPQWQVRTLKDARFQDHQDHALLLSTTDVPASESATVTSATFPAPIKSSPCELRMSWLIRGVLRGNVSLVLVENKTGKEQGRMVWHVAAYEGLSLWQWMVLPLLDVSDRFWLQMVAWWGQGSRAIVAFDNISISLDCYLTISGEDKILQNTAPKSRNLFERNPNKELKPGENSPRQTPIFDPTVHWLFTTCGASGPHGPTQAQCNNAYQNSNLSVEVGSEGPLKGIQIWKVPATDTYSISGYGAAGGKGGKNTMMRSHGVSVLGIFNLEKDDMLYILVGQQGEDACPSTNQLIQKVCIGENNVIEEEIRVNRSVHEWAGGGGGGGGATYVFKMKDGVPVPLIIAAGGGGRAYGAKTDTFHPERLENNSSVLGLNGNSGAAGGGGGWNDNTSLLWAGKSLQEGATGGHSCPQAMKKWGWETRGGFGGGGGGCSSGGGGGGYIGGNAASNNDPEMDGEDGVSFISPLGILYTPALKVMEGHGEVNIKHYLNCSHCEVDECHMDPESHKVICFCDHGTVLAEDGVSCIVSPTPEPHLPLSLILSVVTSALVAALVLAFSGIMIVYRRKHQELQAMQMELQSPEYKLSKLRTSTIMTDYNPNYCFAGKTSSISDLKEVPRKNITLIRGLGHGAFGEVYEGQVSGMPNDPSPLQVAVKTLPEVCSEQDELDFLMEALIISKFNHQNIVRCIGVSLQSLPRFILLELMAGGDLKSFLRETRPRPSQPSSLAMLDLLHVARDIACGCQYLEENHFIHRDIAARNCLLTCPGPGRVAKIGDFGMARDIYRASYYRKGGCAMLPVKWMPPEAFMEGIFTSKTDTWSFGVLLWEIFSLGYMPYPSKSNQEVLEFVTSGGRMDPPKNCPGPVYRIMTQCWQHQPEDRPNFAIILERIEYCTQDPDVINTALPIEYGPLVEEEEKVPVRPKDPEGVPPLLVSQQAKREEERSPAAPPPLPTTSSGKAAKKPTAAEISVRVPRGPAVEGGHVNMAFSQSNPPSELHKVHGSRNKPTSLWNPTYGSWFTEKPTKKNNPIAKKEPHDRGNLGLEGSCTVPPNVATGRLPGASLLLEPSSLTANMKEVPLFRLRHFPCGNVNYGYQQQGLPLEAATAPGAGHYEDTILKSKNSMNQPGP
UniProt O14965: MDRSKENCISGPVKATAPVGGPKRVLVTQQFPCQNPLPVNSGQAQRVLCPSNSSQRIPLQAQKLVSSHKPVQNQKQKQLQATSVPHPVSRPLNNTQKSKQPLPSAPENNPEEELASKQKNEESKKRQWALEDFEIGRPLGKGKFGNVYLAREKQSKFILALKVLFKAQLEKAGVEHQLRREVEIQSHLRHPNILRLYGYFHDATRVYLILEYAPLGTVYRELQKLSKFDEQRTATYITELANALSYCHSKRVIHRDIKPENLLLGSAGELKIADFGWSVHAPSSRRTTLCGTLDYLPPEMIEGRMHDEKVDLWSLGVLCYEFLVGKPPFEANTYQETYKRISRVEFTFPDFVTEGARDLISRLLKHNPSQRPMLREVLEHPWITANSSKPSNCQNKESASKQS
UniProt Q96GD4, whole entry: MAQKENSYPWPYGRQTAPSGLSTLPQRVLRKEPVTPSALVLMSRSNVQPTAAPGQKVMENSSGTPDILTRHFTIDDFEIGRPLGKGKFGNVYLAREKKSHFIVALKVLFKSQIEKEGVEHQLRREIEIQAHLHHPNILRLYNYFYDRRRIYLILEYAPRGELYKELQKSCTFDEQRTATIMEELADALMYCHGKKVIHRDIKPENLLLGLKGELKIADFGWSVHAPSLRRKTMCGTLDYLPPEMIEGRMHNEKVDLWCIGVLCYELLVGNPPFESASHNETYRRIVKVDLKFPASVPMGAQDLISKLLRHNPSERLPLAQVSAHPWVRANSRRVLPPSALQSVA
UniProt Q9UQB9: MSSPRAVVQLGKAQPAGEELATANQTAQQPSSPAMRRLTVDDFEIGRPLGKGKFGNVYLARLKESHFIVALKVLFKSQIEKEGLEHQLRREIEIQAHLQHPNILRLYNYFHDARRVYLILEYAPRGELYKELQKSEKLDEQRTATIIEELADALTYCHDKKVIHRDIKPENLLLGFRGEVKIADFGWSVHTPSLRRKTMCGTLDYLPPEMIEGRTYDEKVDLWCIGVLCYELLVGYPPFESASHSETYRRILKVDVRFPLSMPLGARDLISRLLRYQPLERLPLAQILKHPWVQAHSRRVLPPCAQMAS
UniProt P51451: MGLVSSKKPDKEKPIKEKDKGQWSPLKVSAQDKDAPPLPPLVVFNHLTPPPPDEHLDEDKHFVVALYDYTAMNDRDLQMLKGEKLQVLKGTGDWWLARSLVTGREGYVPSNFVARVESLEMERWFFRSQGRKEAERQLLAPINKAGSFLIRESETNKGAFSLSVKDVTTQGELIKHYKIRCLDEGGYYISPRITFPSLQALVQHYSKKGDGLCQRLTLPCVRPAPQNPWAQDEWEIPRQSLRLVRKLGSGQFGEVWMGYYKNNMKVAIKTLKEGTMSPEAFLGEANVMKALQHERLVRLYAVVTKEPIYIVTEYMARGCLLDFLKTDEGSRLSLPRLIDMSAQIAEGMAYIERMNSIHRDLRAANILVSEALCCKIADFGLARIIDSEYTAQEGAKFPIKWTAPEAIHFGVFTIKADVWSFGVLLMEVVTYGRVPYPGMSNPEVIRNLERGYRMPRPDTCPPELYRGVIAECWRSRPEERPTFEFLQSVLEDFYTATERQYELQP
UniProt P51813: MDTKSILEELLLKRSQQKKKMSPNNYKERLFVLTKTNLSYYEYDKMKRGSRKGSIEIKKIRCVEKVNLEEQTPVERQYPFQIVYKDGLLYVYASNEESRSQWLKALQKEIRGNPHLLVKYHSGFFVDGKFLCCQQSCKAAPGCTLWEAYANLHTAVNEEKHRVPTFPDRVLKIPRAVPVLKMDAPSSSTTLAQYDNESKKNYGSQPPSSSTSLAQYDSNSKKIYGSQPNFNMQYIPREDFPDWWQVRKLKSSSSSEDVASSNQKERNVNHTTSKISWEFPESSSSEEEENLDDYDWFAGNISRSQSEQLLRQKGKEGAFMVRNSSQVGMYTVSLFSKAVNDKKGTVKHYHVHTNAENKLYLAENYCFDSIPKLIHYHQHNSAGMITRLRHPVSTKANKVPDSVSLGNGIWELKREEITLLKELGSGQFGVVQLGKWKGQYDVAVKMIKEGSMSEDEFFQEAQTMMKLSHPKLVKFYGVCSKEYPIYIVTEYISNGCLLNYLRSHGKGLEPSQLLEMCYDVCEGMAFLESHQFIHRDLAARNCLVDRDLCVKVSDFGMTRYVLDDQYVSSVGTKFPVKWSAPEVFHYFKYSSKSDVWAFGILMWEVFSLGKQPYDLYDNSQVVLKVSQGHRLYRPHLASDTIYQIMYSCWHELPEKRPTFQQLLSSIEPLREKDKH
UniProt P15056, whole entry, looked up: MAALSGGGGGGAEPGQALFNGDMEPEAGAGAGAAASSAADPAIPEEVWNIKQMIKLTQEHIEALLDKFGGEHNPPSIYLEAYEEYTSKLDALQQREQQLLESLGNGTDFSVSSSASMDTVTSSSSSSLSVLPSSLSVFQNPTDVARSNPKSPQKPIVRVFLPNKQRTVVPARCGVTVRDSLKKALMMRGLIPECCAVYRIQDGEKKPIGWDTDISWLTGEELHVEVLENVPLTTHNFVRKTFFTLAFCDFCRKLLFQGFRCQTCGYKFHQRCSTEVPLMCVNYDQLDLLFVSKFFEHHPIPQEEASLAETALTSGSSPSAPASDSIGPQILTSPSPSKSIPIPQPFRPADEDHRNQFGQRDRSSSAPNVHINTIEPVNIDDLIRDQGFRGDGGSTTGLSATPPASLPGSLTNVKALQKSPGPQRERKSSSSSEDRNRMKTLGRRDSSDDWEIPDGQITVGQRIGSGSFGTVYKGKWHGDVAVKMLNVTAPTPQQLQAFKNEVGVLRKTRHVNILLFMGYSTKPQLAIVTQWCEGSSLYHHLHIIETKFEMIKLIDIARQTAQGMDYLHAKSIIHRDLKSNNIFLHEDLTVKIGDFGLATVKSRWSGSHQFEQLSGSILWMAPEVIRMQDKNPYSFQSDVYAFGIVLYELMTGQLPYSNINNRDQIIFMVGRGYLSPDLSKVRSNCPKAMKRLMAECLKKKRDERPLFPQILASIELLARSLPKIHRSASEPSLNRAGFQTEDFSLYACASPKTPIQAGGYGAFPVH
UniProt Q9UQM7, whole entry: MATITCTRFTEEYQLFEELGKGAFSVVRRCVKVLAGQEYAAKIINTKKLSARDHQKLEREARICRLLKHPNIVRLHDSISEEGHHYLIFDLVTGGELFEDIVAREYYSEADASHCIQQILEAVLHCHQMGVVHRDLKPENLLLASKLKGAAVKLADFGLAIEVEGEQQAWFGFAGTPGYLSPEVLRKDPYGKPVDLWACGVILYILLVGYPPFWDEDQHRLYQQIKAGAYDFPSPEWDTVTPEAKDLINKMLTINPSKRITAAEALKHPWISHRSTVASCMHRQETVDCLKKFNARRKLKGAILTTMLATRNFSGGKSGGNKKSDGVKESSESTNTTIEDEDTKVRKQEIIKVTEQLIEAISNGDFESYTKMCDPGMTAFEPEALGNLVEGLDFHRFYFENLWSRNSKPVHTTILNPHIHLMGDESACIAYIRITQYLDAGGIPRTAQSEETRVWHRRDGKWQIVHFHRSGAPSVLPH
UniProt Q13555: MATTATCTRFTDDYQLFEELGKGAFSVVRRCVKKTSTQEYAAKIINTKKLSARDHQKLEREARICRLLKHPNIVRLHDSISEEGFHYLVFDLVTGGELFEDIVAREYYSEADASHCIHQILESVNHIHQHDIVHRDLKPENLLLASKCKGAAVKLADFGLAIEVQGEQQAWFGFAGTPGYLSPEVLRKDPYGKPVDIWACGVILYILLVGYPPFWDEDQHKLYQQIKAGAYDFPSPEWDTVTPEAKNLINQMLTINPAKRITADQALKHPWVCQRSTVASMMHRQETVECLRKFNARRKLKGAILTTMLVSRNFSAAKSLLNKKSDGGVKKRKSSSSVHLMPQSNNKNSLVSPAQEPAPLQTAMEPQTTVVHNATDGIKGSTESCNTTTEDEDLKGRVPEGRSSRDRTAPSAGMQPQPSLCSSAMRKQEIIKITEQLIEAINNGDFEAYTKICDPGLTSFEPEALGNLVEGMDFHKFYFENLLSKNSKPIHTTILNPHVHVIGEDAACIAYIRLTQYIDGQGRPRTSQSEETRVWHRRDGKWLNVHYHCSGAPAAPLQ
UniProt Q00526: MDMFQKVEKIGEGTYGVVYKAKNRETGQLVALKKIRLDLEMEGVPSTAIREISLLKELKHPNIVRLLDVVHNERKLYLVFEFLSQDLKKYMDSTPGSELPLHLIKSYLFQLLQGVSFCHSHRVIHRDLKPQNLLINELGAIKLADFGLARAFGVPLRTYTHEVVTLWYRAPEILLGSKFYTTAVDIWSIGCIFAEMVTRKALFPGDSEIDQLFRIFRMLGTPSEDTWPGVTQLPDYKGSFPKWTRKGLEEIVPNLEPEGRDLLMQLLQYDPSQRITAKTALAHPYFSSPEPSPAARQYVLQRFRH
UniProt P11802: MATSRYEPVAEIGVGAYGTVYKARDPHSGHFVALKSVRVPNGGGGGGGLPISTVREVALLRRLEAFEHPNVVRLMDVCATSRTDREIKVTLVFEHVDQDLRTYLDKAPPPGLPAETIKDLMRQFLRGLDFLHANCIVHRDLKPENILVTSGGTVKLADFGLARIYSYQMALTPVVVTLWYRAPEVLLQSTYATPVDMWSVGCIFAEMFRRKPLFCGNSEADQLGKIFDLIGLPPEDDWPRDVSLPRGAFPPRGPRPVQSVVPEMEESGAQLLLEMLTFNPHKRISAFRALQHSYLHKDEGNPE
UniProt Q00535, whole entry, looked up: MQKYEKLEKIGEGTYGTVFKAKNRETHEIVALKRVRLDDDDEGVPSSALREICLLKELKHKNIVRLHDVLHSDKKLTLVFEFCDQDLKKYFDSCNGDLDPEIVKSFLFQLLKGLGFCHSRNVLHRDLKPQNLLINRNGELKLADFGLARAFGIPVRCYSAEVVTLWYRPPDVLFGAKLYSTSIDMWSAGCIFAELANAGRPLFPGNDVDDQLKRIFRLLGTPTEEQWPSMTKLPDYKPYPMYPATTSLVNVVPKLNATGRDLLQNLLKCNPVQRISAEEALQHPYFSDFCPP

Tests used:
Assay in all cases: kinase-Nluc reporter destabilization hit call (1 = scored as downregulated) (binary); higher = compound decreases kinase abundance
Details in all cases: K562; 2-18 h
ABL1 = ABL1 (UniProt P00519)
AKT1 = AKT1 (UniProt P31749)
ALK = ALK (UniProt Q9UM73)
ARAF = ARAF (UniProt P10398)
AURKA = AURKA (UniProt O14965)
AURKB = AURKB (UniProt Q96GD4)
AURKC = AURKC (UniProt Q9UQB9)
BLK = BLK (UniProt P51451)
BMX = BMX (UniProt P51813)
BRAF = BRAF (UniProt P15056)
BRAF_V600E = tested on: BRAF_V600E
BTK = BTK (UniProt Q06187)
CAMK2A = CAMK2A (UniProt Q9UQM7)
CAMK2G = CAMK2G (UniProt Q13555)
CDK10 = CDK10 (UniProt Q15131)
CDK2 = CDK2 (UniProt P24941)
CDK3 = CDK3 (UniProt Q00526)
CDK4 = CDK4 (UniProt P11802)
CDK5 = CDK5 (UniProt Q00535)
CDK6 = CDK6 (UniProt Q00534)

Measured: kinase-Nluc reporter destabilization hit call

S=C(NCc1ccc2c(c1)OCO2)N1CCN(c2ncnc3c2oc2ccccc23)CC1 [Amuvatinib] (2.5 µM)
inactive: ABL1 = 0 | AKT1 = 0 | ALK 0 | ARAF 0 | AURKA 0 | AURKB 0 | AURKC 0 | BLK 0 | BMX 0 | BRAF 0 | BRAF_V600E 0 | BTK 0 | CAMK2A 0 | CAMK2G 0 | CDK10 = 0 | CDK2 = 0 | CDK3 = 0 | CDK4 = 0 | CDK5 = 0 | CDK6 = 0

Cc1cccc(-c2nn3c(c2-c2ccnc4ccc(C(N)=O)cc24)CCC3)n1 [Galunisertib] (10 µM)
inactive: ABL1 = 0 | AKT1 = 0 | ALK 0 | ARAF 0 | AURKA 0 | AURKB 0 | AURKC 0 | BLK 0 | BMX 0 | BRAF 0 | BRAF_V600E 0 | BTK 0 | CAMK2A 0 | CAMK2G 0 | CDK10 = 0 | CDK2 = 0 | CDK3 = 0 | CDK4 = 0 | CDK5 = 0 | CDK6 = 0

CN(C)CCOc1cc(-c2cn[nH]c2)ccc1NC(=O)C1COc2ccccc2O1 (stereo not given) (10 µM)
inactive: ABL1 = 0 | AKT1 = 0 | ALK 0 | ARAF 0 | AURKA 0 | AURKB 0 | AURKC 0 | BLK 0 | BMX 0 | BRAF 0 | BRAF_V600E 0 | BTK 0 | CAMK2A 0 | CAMK2G 0 | CDK10 = 0 | CDK2 = 0 | CDK3 = 0 | CDK4 = 0 | CDK5 = 0 | CDK6 = 0

O=CN1CCN(c2ccc(C=C3C(=O)Nc4ccccc43)cc2)CC1 (10 µM)
inactive: ABL1 = 0 | AKT1 = 0 | ALK 0 | ARAF 0 | AURKA 0 | AURKB 0 | AURKC 0 | BLK 0 | BMX 0 | BRAF 0 | BRAF_V600E 0 | BTK 0 | CAMK2A 0 | CAMK2G 0 | CDK10 = 0 | CDK2 = 0 | CDK3 = 0 | CDK4 = 0 | CDK5 = 0 | CDK6 = 0

CC/C(=C(\c1ccccc1)c1ccc(OCCNC)cc1)c1ccccc1 [N-Desmethyltamoxifen (hydrochloride)] (2.5 µM)
inactive: ABL1 = 0 | AKT1 = 0 | ALK 0 | ARAF 0 | AURKA 0 | AURKB 0 | AURKC 0 | BLK 0 | BMX 0 | BRAF 0 | BRAF_V600E 0 | BTK 0 | CAMK2A 0 | CAMK2G 0 | CDK10 = 0 | CDK2 = 0 | CDK3 = 0 | CDK4 = 0 | CDK5 = 0 | CDK6 = 0

Three entries already listed, sorted by length of the SMILES, descending.
S=C(NCc1ccc2c(c1)OCO2)N1CCN(c2ncnc3c2oc2ccccc23)CC1 [Amuvatinib] (2.5 µM)
inactive: ABL1 = 0 | AKT1 = 0 | ALK 0 | ARAF 0 | AURKA 0 | AURKB 0 | AURKC 0 | BLK 0 | BMX 0 | BRAF 0 | BRAF_V600E 0 | BTK 0 | CAMK2A 0 | CAMK2G 0 | CDK10 = 0 | CDK2 = 0 | CDK3 = 0 | CDK4 = 0 | CDK5 = 0 | CDK6 = 0

CN(C)CCOc1cc(-c2cn[nH]c2)ccc1NC(=O)C1COc2ccccc2O1 (stereo not given) (10 µM)
inactive: ABL1 = 0 | AKT1 = 0 | ALK 0 | ARAF 0 | AURKA 0 | AURKB 0 | AURKC 0 | BLK 0 | BMX 0 | BRAF 0 | BRAF_V600E 0 | BTK 0 | CAMK2A 0 | CAMK2G 0 | CDK10 = 0 | CDK2 = 0 | CDK3 = 0 | CDK4 = 0 | CDK5 = 0 | CDK6 = 0

CC/C(=C(\c1ccccc1)c1ccc(OCCNC)cc1)c1ccccc1 [N-Desmethyltamoxifen (hydrochloride)] (2.5 µM)
inactive: ABL1 = 0 | AKT1 = 0 | ALK 0 | ARAF 0 | AURKA 0 | AURKB 0 | AURKC 0 | BLK 0 | BMX 0 | BRAF 0 | BRAF_V600E 0 | BTK 0 | CAMK2A 0 | CAMK2G 0 | CDK10 = 0 | CDK2 = 0 | CDK3 = 0 | CDK4 = 0 | CDK5 = 0 | CDK6 = 0

Next results follow.

Cc1ccc2c(NS(=O)(=O)c3ccccc3Cl)cccc2c1Oc1ncccc1-c1ccnc(N[C@H]2CCCNC2)n1 (2.5 µM)
inactive: ABL1 = 0 | AKT1 = 0 | ALK 0 | ARAF 0 | AURKA 0 | AURKB 0 | AURKC 0 | BLK 0 | BMX 0 | BRAF 0 | BRAF_V600E 0 | BTK 0 | CAMK2A 0 | CAMK2G 0 | CDK10 = 0 | CDK2 = 0 | CDK3 = 0 | CDK4 = 0 | CDK5 = 0 | CDK6 = 0

O=C(NCc1ccn[nH]1)c1cc([C@@H]2CCNC[C@H]2COc2ccc3c(c2)OCO3)ccc1F [GRK2-IN-1 (hydrochloride)] (10 µM)
inactive: ABL1 = 0 | AKT1 = 0 | ALK 0 | ARAF 0 | AURKA 0 | AURKB 0 | AURKC 0 | BLK 0 | BMX 0 | BRAF 0 | BRAF_V600E 0 | BTK 0 | CAMK2A 0 | CAMK2G 0 | CDK10 = 0 | CDK2 = 0 | CDK3 = 0 | CDK4 = 0 | CDK5 = 0 | CDK6 = 0

CO[C@]1(C(=O)N[C@@H](C)c2ccc(-n3cc(F)cn3)nc2)CC[C@H](c2nc(C)cc(Nc3cc(C)[nH]n3)n2)CC1 [Pralsetinib] (10 µM)
inactive: ABL1 = 0 | AKT1 = 0 | ALK 0 | ARAF 0 | AURKA 0 | AURKB 0 | AURKC 0 | BLK 0 | BMX 0 | BRAF 0 | BRAF_V600E 0 | BTK 0 | CAMK2A 0 | CAMK2G 0 | CDK10 = 0 | CDK2 = 0 | CDK3 = 0 | CDK4 = 0 | CDK5 = 0 | CDK6 = 0

CNCCOc1ccccc1C1(Nc2nccn(-c3cc(C(=O)NC4CC4)cc(F)c3C)c2=O)CC1 (10 µM)
inactive: ABL1 = 0 | AKT1 = 0 | ALK 0 | ARAF 0 | AURKA 0 | AURKB 0 | AURKC 0 | BLK 0 | BMX 0 | BRAF 0 | BRAF_V600E 0 | BTK 0 | CAMK2A 0 | CAMK2G 0 | CDK10 = 0 | CDK2 = 0 | CDK3 = 0 | CDK4 = 0 | CDK5 = 0 | CDK6 = 0

O=C1CCC(N2C(=O)c3cccc(OCCCCCOc4ccc(CC(=O)Nc5cc(C6CCC6)[nH]n5)cc4)c3C2=O)C(=O)N1 (stereo not given) [PROTAC CDK9 Degrader-1] (10 µM)
inactive: ABL1 = 0 | AKT1 = 0 | ALK 0 | ARAF 0 | AURKA 0 | AURKB 0 | AURKC 0 | BLK 0 | BMX 0 | BRAF 0 | BRAF_V600E 0 | BTK 0 | CAMK2A 0 | CAMK2G 0 | CDK10 = 0 | CDK2 = 0 | CDK3 = 0 | CDK4 = 0 | CDK5 = 0 | CDK6 = 0

COc1cc2c(cc1OC)[C@@H]1C(=O)c3ccc4c(c3O[C@@H]1CO2)C=CC(C)(C)O4 [Deguelin] (10 µM)
inactive: ABL1 = 0 | AKT1 = 0 | ALK 0 | ARAF 0 | AURKA 0 | AURKB 0 | AURKC 0 | BLK 0 | BMX 0 | BRAF 0 | BRAF_V600E 0 | BTK 0 | CAMK2A 0 | CAMK2G 0 | CDK10 = 0 | CDK2 = 0 | CDK3 = 0 | CDK4 = 0 | CDK5 = 0 | CDK6 = 0

CCCS(=O)(=O)N[C@H]1C[C@@H](N(C)c2ncnc3[nH]ccc23)C1 [Abrocitinib] (10 µM)
inactive: ABL1 = 0 | AKT1 = 0 | ALK 0 | ARAF 0 | AURKA 0 | AURKB 0 | AURKC 0 | BLK 0 | BMX 0 | BRAF 0 | BRAF_V600E 0 | BTK 0 | CAMK2A 0 | CAMK2G 0 | CDK10 = 0 | CDK2 = 0 | CDK3 = 0 | CDK4 = 0 | CDK5 = 0 | CDK6 = 0

CCCCC(=O)OCC(=O)[C@]1(O)Cc2c(O)c3c(c(O)c2[C@@H](O[C@H]2C[C@H](NC(=O)C(F)(F)F)[C@H](O)[C@H](C)O2)C1)C(=O)c1c(OC)cccc1C3=O [Valrubicin] (10 µM)
inactive: ABL1 = 0 | AKT1 = 0 | ALK 0 | ARAF 0 | AURKA 0 | AURKB 0 | AURKC 0 | BLK 0 | BMX 0 | BRAF 0 | BRAF_V600E 0 | BTK 0 | CAMK2A 0 | CAMK2G 0 | CDK10 = 0 | CDK2 = 0 | CDK3 = 0 | CDK4 = 0 | CDK5 = 0 | CDK6 = 0

CCNC(=O)Nc1ccc(-c2nc3c(c(N4CCOC[C@@H]4C)n2)CCN(C2COC2)C3)cc1 (2.5 µM)
inactive: ABL1 = 0 | AKT1 = 0 | ALK 0 | ARAF 0 | AURKA 0 | AURKB 0 | AURKC 0 | BLK 0 | BMX 0 | BRAF 0 | BRAF_V600E 0 | BTK 0 | CAMK2A 0 | CAMK2G 0 | CDK10 = 0 | CDK2 = 0 | CDK3 = 0 | CDK4 = 0 | CDK5 = 0 | CDK6 = 0

CC(C)n1c(CO)nc2c(F)cc(-c3nc(Nc4ccc(CN5CCNCC5)cn4)ncc3F)cc21 (10 µM)
inactive: ABL1 = 0 | AKT1 = 0 | ALK 0 | ARAF 0 | AURKA 0 | AURKB 0 | AURKC 0 | BLK 0 | BMX 0 | BRAF 0 | BRAF_V600E 0 | BTK 0 | CAMK2A 0 | CAMK2G 0 | CDK10 = 0 | CDK2 = 0 | CDK3 = 0 | CDK4 = 0 | CDK5 = 0 | CDK6 = 0

CN1CCN(c2ccc(-c3ccncc3-c3cc(F)c(O)c(F)c3)cc2)CC1 (10 µM)
inactive: ABL1 = 0 | AKT1 = 0 | ALK 0 | ARAF 0 | AURKA 0 | AURKB 0 | AURKC 0 | BLK 0 | BMX 0 | BRAF 0 | BRAF_V600E 0 | BTK 0 | CAMK2A 0 | CAMK2G 0 | CDK10 = 0 | CDK2 = 0 | CDK3 = 0 | CDK4 = 0 | CDK5 = 0 | CDK6 = 0

NC(=O)c1c(NC(=O)C2CC2)sc2c1CCCC2 (10 µM)
inactive: ABL1 = 0 | AKT1 = 0 | ALK 0 | ARAF 0 | AURKA 0 | AURKB 0 | AURKC 0 | BLK 0 | BMX 0 | BRAF 0 | BRAF_V600E 0 | BTK 0 | CAMK2A 0 | CAMK2G 0 | CDK10 = 0 | CDK2 = 0 | CDK3 = 0 | CDK4 = 0 | CDK5 = 0 | CDK6 = 0
